Results as given in the supplement of paper PMC4862054.
Small differences around the control level are noise.

Tests used:
Test in all cases: normalised response (% of control), CellTox Green; higher = less cell death (100 = DMSO, 0 = benzethonium chloride kill control)
Conditions in all cases: incubation time: 72 h
BT-474 = test system: BT-474
Protocol: (§1)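 DSRT, 72 h incubation, CellTox Green / CellTiter-Glo readout. Signal is normalised to DMSO and benzethonium chloride controls. Value is the normalised response at the lowest tested concentration.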

BT-549 = test system: BT-549
Protocol: as §1

CAL-120 = test system: CAL-120
Protocol: as §1

CAL-148 = test system: CAL-148
Protocol: as §1

CAL-51 = test system: CAL-51
Protocol: as §1

CAL-85-1 = test system: CAL-85-1
Protocol: as §1

DU-4475 = test system: DU-4475
Protocol: as §1

HCC1143 = test system: HCC1143
Protocol: as §1

HCC1599 = test system: HCC1599
Protocol: as §1

HCC1937 = test system: HCC1937
Protocol: as §1

HDQ-P1 = test system: HDQ-P1
Protocol: as §1

Hs578T = test system: Hs578T
Protocol: as §1

MCF-10A = test system: MCF-10A
Protocol: as §1

MDA-MB-231 = test system: MDA-MB-231
Protocol: as §1

MDA-MB-436 = test system: MDA-MB-436
Protocol: as §1

MDA-MB-453 = test system: MDA-MB-453
Protocol: as §1

MDA-MB-468 = test system: MDA-MB-468
Protocol: as §1

MFM-223 = test system: MFM-223
Protocol: as §1

Row | SMILES | normalised response (BT-474) [%] | normalised response (BT-549) [%] | normalised response (CAL-120) [%] | normalised response (CAL-148) [%] | normalised response (CAL-51) [%] | normalised response (CAL-85-1) [%] | normalised response (DU-4475) [%] | normalised response (HCC1143) [%] | normalised response (HCC1599) [%] | normalised response (HCC1937) [%] | normalised response (HDQ-P1) [%] | normalised response (Hs578T) [%] | normalised response (MCF-10A) [%] | normalised response (MDA-MB-231) [%] | normalised response (MDA-MB-436) [%] | normalised response (MDA-MB-453) [%] | normalised response (MDA-MB-468) [%] | normalised response (MFM-223) [%]
1 | Cn1c(CCCC(=O)O)nc2cc(N(CCCl)CCCl)ccc21 [Bendamustine] (1 nM) | 102 | 93.3 | 96.8 | 91.4 | 93.9 | 99 | 102 | 90.1 | 99.4 | 87.3 | 99 | 97.3 | 109 | 115 | 97.5 | 111 | 56.4 | 101
2 | Nc1ncn([C@H]2C[C@H](O)[C@@H](CO)O2)c(=O)n1 [Decitabine] (1 nM) | 103 | 96.2 | 97.1 | 108 | 99.8 | 107 | 98.5 | 112 | 85.9 | 110 |  | 106 | 100 | 96.3 | 81.4 | 69.3 | 56.2 | 98.5
3 | COc1cccc2c1C(=O)c1c(O)c3c(c(O)c1C2=O)C[C@@](O)(C(=O)CO)C[C@@H]3O[C@H]1C[C@H](N)[C@H](O)[C@H](C)O1 [Doxorubicin] (0.1 nM) | 104 | 90.1 | 101 | 109 | 115 | 106 | 100 | 95 | 89.6 | 108 |  | 111 | 96.1 | 102 | 93.1 | 108 | 63.5 | 101
4 | Nc1nc(F)nc2c1ncn2[C@@H]1O[C@H](CO)[C@@H](O)[C@@H]1O [Fludarabine] (1 nM) | 100 | 95.8 | 74.5 | 105 | 109 | 99.7 | 103 | 121 | 106 | 74.5 |  | 101 |  | 106 | 90.5 | 107 | 75.9 | 62.9
5 | CC(C)NC[C@@H](C(=O)N1CCN(c2ncnc3c2[C@H](C)C[C@H]3O)CC1)c1ccc(Cl)cc1 [GDC-0068] (1 nM) | 98 | 81.8 | 105 |  | -53.8 | 97.1 | 106 | 117 | 106 | 104 | 99.2 | 113 | 107 | 107 | 86.4 | 100 | 91.1 | 84.5
6 | CN(C)C(=N)NC(=N)N [Metformin] (10 nM) | 94.9 | 92.4 | 98.4 | 63.3 |  | 98.9 | 93.2 | 74.9 | 92.8 | 94.4 | 75.2 | 52.4 | 91.6 | 83.6 | 76.1 | 87.6 | 92.8 | 84
7 | CC(C)(C)c1cnc(CSc2cnc(NC(=O)C3CCNCC3)s2)o1 [SNS-032] (1 nM) | 101 | 92.3 | 99.5 | 97.8 | 107 | 89.6 | 96.3 | 96.8 | 96.7 | 101 | 93.7 | 107 |  | 103 | 104 | 90.8 | 90 | 90.7
8 | c1ccc2c(CCNc3ccc(Nc4ccncc4)cc3)c[nH]c2c1 [Serdemetan] (1 nM) | 99.4 | 98.9 | 97.9 |  | 113 | 98.3 | 97.4 | 102 | 94.5 | 86.2 | 73.7 | 90.1 | 80.2 | 103 | 74.5 | 98.8 | 110 | 101
9 | O=C(CCCCCCC(=O)Nc1ccc([C@H]2O[C@@H](CSc3nc(-c4ccccc4)c(-c4ccccc4)o3)C[C@@H](c3ccc(CO)cc3)O2)cc1)NO [Tubacin] (1 nM) | 97.5 | 93.6 | 102 | 97.9 | 126 | 107 | 103 |  | 109 | 100 | 108 | 68 | 102 | 98.1 | 98 | 104 | 91.5 | 105
10 | COc1cc2c(NC3CCN(C(C)C)CC3)nc(N3CCC(F)(F)CC3)nc2cc1OCCCN1CCCC1 [UNC0642] (1 nM) | 99.2 | 100 | 98.7 | 98.4 | 97.8 | 97.1 | 93.8 | 94.1 | 102 | 77.9 | 78.2 |  | 97.1 | 97.7 | 78.1 | 100 | 91.8 | 95.1
11 | C[C@]1(c2nc3c(C(N)=O)cccc3[nH]2)CCCN1 [Veliparib] (1 nM) | 101 | 95 | 95.1 | 95.6 | 117 | 101 | 99.8 |  | 101 | 101 | 94.7 | 87.9 | 102 | 102 | 84 | 116 | 81.7 | 97.5
12 | CC[C@@H]1C(=O)N(C)c2cnc(Nc3ccc(C(=O)N[C@H]4CC[C@H](N5CCN(CC6CC6)CC5)CC4)cc3OC)nc2N1C(C)C [Volasertib] (0.1 nM) | 96.9 | 101 | 100 | 95.4 | 110 | 99.6 | 95.6 | 113 | 88.4 | 89.8 | 103 | 92.5 | 93.4 |  | 104 | 99.8 |  | 99.8
